Assay results: PubChem BioAssay AID1487 (National Center for Advancing Translational Sciences (NCATS), 2009)
The other results are listed elsewhere or left out. The main result of the screen is listed elsewhere. These columns were measured beside it and carry no call. Most of these compounds were active or inconclusive in the main read-out, so they are no random draw. The note in brackets gives the kind of curve behind each potency; many fits are weak.

Experiment: qHTS Assay for Modulators of Lamin A Splicing
Conditions: HeLa LMNA splicing GFP/RFP minigene ratio, 48 h
Outline: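 S3 HeLa cells stably expressing lamin A-EGFP splicing minigene plus DsRed2, 600 cells/well, 48 h compound exposure at 37C. Laser-scanning cytometry; analysed as GFP (500-530 nm)/RFP (575-640 nm) total intensity ratio; 0.5% DMSO vehicle.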

[1] = measured here: RFP viability control channel
[2] = measured here: GFP splicing reporter channel

| SMILES | AC50 [1] | AC50 [2] |
| --- | --- | --- |
| Cc1ccc(C(NC(=O)C(C)C)c2cc([N+](=O)[O-])c3cccnc3c2O)cc1 (stereo not drawn) | 5.62 µM [rising, full curve] |  |
| CC(=O)NCCc1ccc(O)c(O)c1 | 5.62 µM [falling, single point] |  |
| O=C(CCCCCNC(=O)c1ccccc1Br)N=Nc1c(O)[nH]c2ccccc12 | 0.00501 µM [falling, full curve, poor fit] | 0.00501 µM [falling, full curve, poor fit] |
| Cc1cc(N2CCN(C)CC2)nc2ccc(NC(=O)Nc3cccc(Cl)c3)cc12 |  | 8.91 µM [falling, partial curve] |
| Cc1cccc(-n2ncc(C(=O)N3CCN(c4ccc(C)cc4C)CC3)c2C2CCN(C(=O)OC(C)(C)C)CC2)c1 | 0.0126 µM [rising, full curve, poor fit] |  |
| Cn1c(=O)c2c(nc(NCCOc3ccc(C(C)(C)C)cc3)n2C)n(C)c1=O | 1.26 µM [rising, full curve] | 5.62 µM [rising, partial curve] |
| OCCNCCCOc1cc(Cl)ccc1Cl | 0.355 µM [falling, full curve, poor fit] |  |
| Cc1oc2ncn(C)c(=O)c2c1C(=O)NCCCN1CCCCC1C (stereo not drawn) | 0.0501 µM [falling, full curve, poor fit] |  |
| COc1cccc(NS(=O)(=O)c2c(C)cc(C)cc2C)c1 | 35.5 µM [rising, single point] |  |
| Cc1ccc(-n2nnnc2-c2cnn(-c3ccc(F)cc3)c2C(F)(F)F)cc1 | 15.8 µM [rising, partial curve] | 11.2 µM [rising, partial curve] |
| CCn1c(Cc2cccs2)nnc1SCC(=O)Nc1ccc(OC)c(OC)c1 | 17.8 µM [rising, single point] |  |
| CC(C)COc1ccc(Cc2cnc(N)nc2N)cc1 | 10 µM [falling, partial curve, poor fit] | 35.5 µM [falling, single point] |
| CC(=O)c1cc(-c2ccc(F)cc2)n(CC(=O)NC2CCC(C)CC2)c1C (stereo not drawn) | 35.5 µM [falling, partial curve] |  |
| c1ccc2c(CCNc3ncnc4nc[nH]c34)cccc2c1 | 3.16 µM [rising, full curve] |  |
| CC(C)(CCl)C(=O)Nc1ccc(C(F)(F)F)cc1 | 35.5 µM [falling, partial curve, poor fit] |  |
| CCN(CC)C(=O)N1CCN(C)CC1 | 11.2 µM [rising, partial curve, poor fit] | 3.16 µM [rising, partial curve] |
| CCc1ccc(Nc2nnc(SCC(=O)Nc3cccc(S(=O)(=O)NC4=NCCCCC4)c3)s2)cc1 | 14.1 µM [rising, partial curve] |  |
| Cc1ccccc1NC(=O)Cn1cccc1 | 2.82 µM [falling, single point] |  |

| SMILES | AC50 [1] | AC50 [2] |
| --- | --- | --- |
| Nc1ccc(N=Nc2ccccc2)c(N)n1 | 1 µM [falling, full curve] | 1 µM [falling, full curve] |
| Cc1ccc(-n2c(CNC(=O)c3cccs3)nnc2SCC(=O)NO)cc1 | 6.31 µM [falling, partial curve, poor fit] | 7.08 µM [falling, partial curve, poor fit] |
| Cc1cc(C)n2nc(SCC(=O)N/N=C/c3cccc(Br)c3)nc2n1 |  | 15.8 µM [rising, single point] |
| Cc1ccc(N2CCN(C(=O)c3cnn(-c4ccc(F)cc4F)c3C3CCN(C(=O)OC(C)(C)C)CC3)CC2)c(C)c1 | 12.6 µM [rising, single point] |  |
| CCCS(=O)(=O)N1CCN(Cc2ccc([N+](=O)[O-])cc2)CC1 | 14.1 µM [rising, partial curve, poor fit] |  |
| O=[N+]([O-])c1ccc(Cl)c(CN2CCSCC2)c1 | 0.0224 µM [rising, full curve, poor fit] |  |
| CCCOc1ccc(C(=O)Nc2ccc(S(=O)(=O)Nc3cc(C)nc(C)n3)cc2)cc1 | 25.1 µM [falling, partial curve, poor fit] |  |
| CCOc1cc(/C=N/O)cc(Br)c1OCc1ccc(Cl)cc1 | 35.5 µM [falling, single point] | 25.1 µM [falling, single point] |
| CC1=C/C(=N\OS(=O)(=O)c2ccccc2)C(C(C)C)=CC1=O | 17.8 µM [falling, single point] | 12.6 µM [falling, partial curve, poor fit] |
| Cc1ccccc1-c1nn2c(-c3ccccc3)nnc2s1 | 14.1 µM [rising, single point] |  |
| O=C(NCc1ccccc1)c1ccc2c(=O)[nH]c3c(C(=O)NCC4CCCO4)sc(=S)n3c2c1 (stereo not drawn) | 0.891 µM [rising, partial curve, poor fit] |  |
| O=C(Nc1nc(-c2ccc(Cl)cc2Cl)cs1)c1ccc(OCC2CCCO2)cc1 (stereo not drawn) | 1.78 µM [rising, full curve] | 1.12 µM [rising, full curve, poor fit] |
| CC1CCCCN1C(C(=O)O)c1ccccc1 (stereo not drawn) |  | 35.5 µM [rising, single point] |
| O=C(NCCN1C(=O)S/C(=C\c2ccc(OC(F)F)cc2)C1=O)c1cnccn1 | 14.1 µM [rising, single point] |  |
| O=C(N/N=C/c1ccc(O)cc1)c1cc(-c2ccc3c(c2)OCO3)n[nH]1 | 22.4 µM [rising, single point] |  |
| O=C(OCC(=O)N1CCN(C(=O)c2ccco2)CC1)c1ccccc1OCc1ccc(Cl)cc1 | 35.5 µM [rising, single point] | 35.5 µM [rising, single point] |
| O=C(NCCc1ccccc1)C1CCN(Cc2cc3ccccc3n2Cc2cccc(Cl)c2)CC1 |  | 6.31 µM [falling, partial curve, poor fit] |
| COC(=O)CC1C(=O)NCCN1C(=S)Nc1cccc(C)c1 (stereo not drawn) | 0.316 µM [rising, single point] | 0.2 µM [rising, single point] |

In a second layout: entries from further up.
SMILES,AC50 [1],AC50 [2]
Cc1ccc(N2CCN(C(=O)c3cnn(-c4ccc(F)cc4F)c3C3CCN(C(=O)OC(C)(C)C)CC3)CC2)c(C)c1,"12.6 µM [rising, single point]",
CCCS(=O)(=O)N1CCN(Cc2ccc([N+](=O)[O-])cc2)CC1,"14.1 µM [rising, partial curve, poor fit]",
